Laboratory results taken from the supplement of paper PMC4604168 (melanoma cell lines).
The other results are listed elsewhere or left out. Single values are uncertain, as repeats are few or missing.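 Imaging used 1,536-well plates; nuclei positive for cleaved PARP by antibody were divided by total DNA-stained nuclei to yield the apoptosis fraction. Doses for screening kept most cells viable, and cell lines differ markedly in resting and induced cleaved-PARP levels.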

Columns and labels:
Experiment in all cases: cleaved PARP positive nuclei fraction relative to DMSO control; melanoma cells; higher = more apoptosis
Settings in all cases: library dose: low library concentration; 72 h
WM115 = system: WM115
WM1716 = system: WM1716
WM1745 = system: WM1745
WM3526 = system: WM3526
WM3619 = system: WM3619
WM451Lu = system: WM451Lu

Structure (SMILES)	cleaved PARP positive nuclei fraction (WM115) [%]	cleaved PARP positive nuclei fraction (WM1716) [%]	cleaved PARP positive nuclei fraction (WM1745) [%]	cleaved PARP positive nuclei fraction (WM3526) [%]	cleaved PARP positive nuclei fraction (WM3619) [%]	cleaved PARP positive nuclei fraction (WM451Lu) [%]
Clc1ccc(Nc2nnc(Cc3ccncc3)c3ccccc23)cc1 [vatalanib] + O=C(Oc1ccc([N+](=O)[O-])cc1)N1CCC(C(O)(c2ccc3c(c2)OCO3)c2ccc3c(c2)OCO3)CC1 [JZL184] (first compound 2 µM, partner dose 1 µM)	152	128	107	68.8	114	29.7
C=CCNC1=C2C[C@@H](C)C[C@H](OC)[C@H](O)[C@@H](C)/C=C(\C)[C@H](OC(N)=O)[C@@H](OC)/C=C\C=C(/C)C(=O)NC(=CC1=O)C2=O [Tanespimycin] + Cc1cc(SCc2sc(-c3ccc(C(F)(F)F)c(F)c3)nc2C)ccc1OCC(=O)O [GW0742] (first compound 0.002 µM, partner dose 2 µM)	101	164	95.9	70.3	100	7.34
CC(C)(C)c1cnc(CSc2cnc(NC(=O)C3CCNCC3)s2)o1 + O=C(Oc1ccc([N+](=O)[O-])cc1)N1CCC(C(O)(c2ccc3c(c2)OCO3)c2ccc3c(c2)OCO3)CC1 [JZL184] (first compound 0.01 µM, partner dose 1 µM)	77.4	79.4	116	71.5	80.9	43.4
C[As](C)SC[C@H](NC(=O)CC[C@H](N)C(=O)O)C(=O)NCC(=O)O [Darinaparsin] + O=C(O)C(=O)Nc1sc2c(c1C(=O)O)CCNC2 [TCS401] (first compound 0.4 µM, partner dose 1.66667 µM)	73.5	41.6	104	102	204	44.5
O=C(/C=C/c1cccnc1)NCCCCC1CCN(C(=O)c2ccccc2)CC1 + O=C(Oc1ccc([N+](=O)[O-])cc1)N1CCC(C(O)(c2ccc3c(c2)OCO3)c2ccc3c(c2)OCO3)CC1 [JZL184] (first compound 0.01 µM, partner dose 1 µM)	169	113	73.7	73.9	93.6	67.3
Cn1cc(C2=C(c3cn(C4CCN(Cc5ccccn5)CC4)c4ccccc34)C(=O)NC2=O)c2ccccc21 [Enzastaurin] + CN(c1ncccc1CNc1nc(Nc2ccc3c(c2)CC(=O)N3)ncc1C(F)(F)F)S(C)(=O)=O [PF562271] (first compound 0.8 µM, partner dose 0.08 µM)	103	77.2	104	17	83.5	56.5
OCCn1cc(-c2cnc3nnn(Cc4ccc5ncccc5c4)c3n2)cn1 + O=C(Oc1ccc([N+](=O)[O-])cc1)N1CCC(C(O)(c2ccc3c(c2)OCO3)c2ccc3c(c2)OCO3)CC1 [JZL184] (first compound 1 µM, partner dose 1 µM)	178	81.4	119	359	69.2	77.9
CC1(C)CCC(c2ccc(Cl)cc2)=C(CN2CCN(c3ccc(C(=O)NS(=O)(=O)c4ccc(N[C@H](CCN5CCOCC5)CSc5ccccc5)c(S(=O)(=O)C(F)(F)F)c4)cc3)CC2)C1 + Cn1cc(C2=C(c3cn(C4CCN(Cc5ccccn5)CC4)c4ccccc34)C(=O)NC2=O)c2ccccc21 [Enzastaurin] (first compound 0.4 µM, partner dose 0.8 µM)	177	180	945	162	87.1	536
C[As](C)SC[C@H](NC(=O)CC[C@H](N)C(=O)O)C(=O)NCC(=O)O [Darinaparsin] + N#Cc1c(O)c2c(-c3ccc(-c4ccccc4O)cc3)csc2[nH]c1=O [A769662] (first compound 0.4 µM, partner dose 2 µM)	92.9	72.1	107	150	105	81.1
Cn1cc(C2=C(c3cn(C4CCN(Cc5ccccn5)CC4)c4ccccc34)C(=O)NC2=O)c2ccccc21 [Enzastaurin] + CC1(C)NC(=O)N(c2ccc([N+](=O)[O-])c(C(F)(F)F)c2)C1=O [nilutamide] (first compound 0.8 µM, partner dose 1 µM)	50.8	58.7	113	55.9	100	229
Cc1ccc(Nc2nccc(N(C)c3ccc4c(C)n(C)nc4c3)n2)cc1S(N)(=O)=O [Pazopanib] + Cc1cc(SCc2sc(-c3ccc(C(F)(F)F)c(F)c3)nc2C)ccc1OCC(=O)O [GW0742] (first compound 0.4 µM, partner dose 2 µM)	148	55.6	99.2	87	109	72.7
Cc1cc(Nc2cc(N3CCN(C)CC3)nc(/C=C/c3ccccc3)n2)n[nH]1 + O=C(Oc1ccc([N+](=O)[O-])cc1)N1CCC(C(O)(c2ccc3c(c2)OCO3)c2ccc3c(c2)OCO3)CC1 [JZL184] (first compound 0.04 µM, partner dose 1 µM)	284	384	104	35.7	1700	93.8
CCCCCCCCc1ccc(CCC(N)(CO)CO)cc1 [fingolimod] + O=C(Oc1ccc([N+](=O)[O-])cc1)N1CCC(C(O)(c2ccc3c(c2)OCO3)c2ccc3c(c2)OCO3)CC1 [JZL184] (first compound 2 µM, partner dose 1 µM)	118	85.8	102	84.5	91.7	70.1
N.N.[Cl][Pt][Cl] [cisplatin] + Oc1nc(-c2ccc(C(F)(F)F)cc2)nc2c1CSCC2 [XAV939] (first compound 1.6 µM, partner dose 2 µM)	191	109	91.6	83.2	117	112
O=C(CCCCCCC(=O)Nc1ccccc1)NO [vorinostat] + Cc1cc(SCc2sc(-c3ccc(C(F)(F)F)c(F)c3)nc2C)ccc1OCC(=O)O [GW0742] (first compound 0.08 µM, partner dose 2 µM)	121	138	102	52.1	89.8	72.4
CCCCCCCCc1ccc(CCC(N)(CO)CO)cc1 [fingolimod] + Cc1cc(SCc2sc(-c3ccc(C(F)(F)F)c(F)c3)nc2C)ccc1OCC(=O)O [GW0742] (first compound 2 µM, partner dose 2 µM)	124	161	124	142	122	170
Cc1cn(-c2cc(NC(=O)c3ccc(C)c(Nc4nccc(-c5cccnc5)n4)c3)cc(C(F)(F)F)c2)cn1 [nilotinib] + N.N.[Cl][Pt][Cl] [cisplatin] (first compound 0.2 µM, partner dose 1.6 µM)	139	34.3	103	24.4	119	58.2
N.N.[Cl][Pt][Cl] [cisplatin] + CN(C)S(=O)(=O)c1ccc2c(c1)/C(=C/c1cc3c([nH]1)CCCC3)C(=O)N2 [SU6656] (first compound 1.6 µM, partner dose 0.4 µM)	109	76.9	95	66.2	92.3	122
C[As](C)SC[C@H](NC(=O)CC[C@H](N)C(=O)O)C(=O)NCC(=O)O [Darinaparsin] + NC(=O)Nc1cc(-c2cccc(F)c2)sc1C(=O)N[C@H]1CCCNC1 [AZD7762] (first compound 0.4 µM, partner dose 0.02 µM)	96.9	71	94.3	61.7	106	177
C[C@]12O[C@H](C[C@]1(O)CO)n1c3ccccc3c3c4c(c5c6ccccc6n2c5c31)CNC4=O [Lestaurtinib] + Cc1cc(Nc2cc(N3CCN(C)CC3)nc(/C=C/c3ccccc3)n2)n[nH]1 [ENMD2076] (first compound 0.004 µM, partner dose 0.04 µM)	181	126	93.6	48.4	90	162
C[As](C)SC[C@H](NC(=O)CC[C@H](N)C(=O)O)C(=O)NCC(=O)O [Darinaparsin] + c1cc(-c2cnn3cc(-c4ccc(OCCN5CCCCC5)cc4)cnc23)ccn1 [Dorsomorphin] (first compound 0.4 µM, partner dose 0.4 µM)	88.9	58.3	261	74.9	93.3	61.8

Some values from the list.
In cleaved PARP positive nuclei fraction (WM451Lu) [%], N.N.[Cl][Pt][Cl] [cisplatin] + CN(C)S(=O)(=O)c1ccc2c(c1)/C(=C/c1cc3c([nH]1)CCCC3)C(=O)N2 [SU6656] (first compound 1.6 µM, partner dose 0.4 µM) reads 122
In cleaved PARP positive nuclei fraction (WM3526) [%], Cc1cc(Nc2cc(N3CCN(C)CC3)nc(/C=C/c3ccccc3)n2)n[nH]1 + O=C(Oc1ccc([N+](=O)[O-])cc1)N1CCC(C(O)(c2ccc3c(c2)OCO3)c2ccc3c(c2)OCO3)CC1 [JZL184] (first compound 0.04 µM, partner dose 1 µM) reads 35.7
